Source: PubChem BioAssay AID624297 (National Center for Advancing Translational Sciences (NCATS), 2012)
The whole screen tested about 340,000 compounds, of which about 6,200 (1.8%) were called active. Inconclusive results, whose numbers are uncertain, are shown with a selection of clear calls. The call rests on the fitted dose curve; in most records, active means well fitted activation curve with a large enough effect; inconclusive means small, poorly fitted or top-dose-only effect; inactive means no such curve, though single readings can be large or run the other way. Where the call is inconclusive, the potency comes from a doubtful curve fit.

Assay: A quantitative high throughput screen for small molecules that induce DNA re-replication in SW480 colon adenocarcinoma cells. Further: nearly all actives have a fitted effect of over 55% in size. On re-replication activation: % of control where 0% means no effect.
Conditions: Hoechst DNA content imaging, 48 h; re-replication activation: at 46.1 µM (top of the series) unless noted
Outline: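 First, 250 cells per well were seeded. Next, compound or vehicle (23 nL) was pinned in, plates sat 48 hr at 37 C. Finally Hoechst was added for 40 min before fluorescence scanning.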
Potency means the concentration at half of the fitted maximal effect.

Compound	Potency	re-replication activation
N/C(=N\NC(=O)c1cccs1)c1cc2cc(Cl)ccc2oc1=O	inconclusive: 20.6 µM [activator, single point]	–
CC(=O)N1N=C(c2ccc(C)c([N+](=O)[O-])c2)OC1(C)C	inconclusive: 18.4 µM [activator, single point]	–
O=c1[nH]c(Nc2ccccc2Cl)cc2ccccc12	inconclusive: 0.146 µM [activator, full curve, poor fit]	–
Cc1cc(NC(=O)CSc2nc3cc(Cl)ccc3c(=O)n2C(C)C)no1	inconclusive: 23.1 µM [activator, partial curve, poor fit]	–
COc1ccc(CN2CCN(C(=O)CCC(=O)Nc3nnc(CC(C)C)s3)CC2)cc1F	–	inactive: -20.2%
CCOc1ccc(/C=C/C(=O)c2c(O)c3ccccc3oc2=O)cc1	inconclusive: 0.366 µM [activator, full curve, poor fit]	–
CCCCCCCCNC(=S)NCCN1CCCCC1	inconclusive: 0.82 µM [activator, full curve, poor fit]	–
COc1ccccc1-n1cnc2cc(NCc3cccs3)ccc21	active: 2.06 µM	–
O=C(NCC(c1cccs1)N1CCOCC1)c1cc(-c2ccccn2)nc2ccccc12 (stereo not given)	–	inactive: 1.98%
CCOC(=O)c1c(NC(=O)CSc2nnc(C)s2)sc2c1CCC(CC)C2 (stereo not given)	inconclusive: 16.4 µM [activator, single point]	–
O=C(NNc1ccccn1)C(=O)NNS(=O)(=O)c1ccc(Cl)cc1	inconclusive: 25.9 µM [activator, partial curve, poor fit]	–
CN1CCC(OC(=O)COc2ccc(C(C)(C)C)cc2)CC1	–	inactive: -10.7%
CCc1ccc(C(=O)NN(C(=O)c2ccc(CC)cc2)C(C)(C)C)cc1	inconclusive: 3.66 µM [activator, full curve, poor fit]	–
CCCn1nc(NC(=O)c2ccco2)c2cc3ccccc3nc21	active: 18.4 µM	–
CCN1CCN(CCCNC(=O)c2cc3sccc3n2CC)CC1	inconclusive: 18.4 µM [activator, partial curve, poor fit]	–
CCCOc1ccc(S(=O)(=O)NNC(=O)c2cc3ccccc3o2)cc1	inconclusive: 6.51 µM [activator, single point]	–
FC(F)Oc1ccc(/C=N/NC(=S)Nc2cc(C(F)(F)F)ccc2Cl)cc1	inconclusive: 25.9 µM [activator, partial curve, poor fit]	–
O=C(NCc1nc(-c2ccc(C(F)(F)F)cc2)no1)Nc1ccc(OC(F)(F)F)cc1	inconclusive: 20.6 µM [activator, single point]	–
CC(=O)Nc1ccc(S(=O)(=O)Oc2ccc(C=O)cc2)cc1	inconclusive: 20.6 µM [activator, single point]	–
O=C(C[C@H]1C[C@H](C(=O)N2CCCCC2)[C@@]2(CCc3ccccc3)c3[nH]c4cc(-c5ccco5)ccc4c3CCN2C1=O)NCc1cccc(C(F)(F)F)c1	inconclusive: 20.6 µM [activator, partial curve, poor fit]	–
Cc1ccc(C)c(NC(=S)NC(NC(=O)N(C)C)C(Cl)(Cl)Cl)c1 (stereo not given)	inconclusive: 0.0651 µM [activator, full curve, poor fit]	–
CCc1ccc2[nH]c(=O)c(CN(Cc3ccc4c(c3)OCO4)Cc3nnnn3C3CCCC3)cc2c1	inconclusive: 18.4 µM [activator, partial curve, poor fit]	–

Compound	Potency	re-replication activation
O=C(OCC(=O)N1CCN(C(=O)c2ccco2)CC1)c1cc(-c2ccc(Cl)c(Cl)c2Cl)nc2ccccc12	inconclusive: 29.1 µM [activator, single point]	–
CCC(C)NC(=O)c1ccc(CN2CCc3ccccc3C2)cc1 (stereo not given)	inconclusive: 29.1 µM [activator, single point]	–
Cc1c(S(=O)(=O)c2ccccn2)c(N)n(Cc2ccccc2Cl)c1C	inconclusive: 9.2 µM [activator, single point]	–
Cc1c(C(=O)Nc2ccc3nc(N4CCOCC4)sc3c2)oc2ccccc12	inconclusive: 4.11 µM [activator, single point]	–
CCOc1ccc(-n2c(SCC(=O)OC)nc3sc4c(c3c2=O)CCN(C)C4)cc1	–	inactive: -10.5%
COc1ccc(C(=O)NCC2(c3ccccc3)CCCC2)c(OC)c1	inconclusive: 18.4 µM [activator, partial curve, poor fit]	–
C[C@@H]1CN([C@H](C)CO)C(=O)Cc2cc(NC(=O)Nc3ccccc3)ccc2O[C@@H]1CN(C)Cc1ccc2c(c1)OCO2	inconclusive: 7.31 µM [activator, partial curve, poor fit]	–
CCOc1ccc(NC(=O)c2cc(OC)nc3ccccc23)cc1	inconclusive: 1.16 µM [activator, full curve, poor fit]	–
COc1ccc(CNC(=O)CCSc2nc(-c3ccc4c(c3)OCO4)cc(C(F)(F)F)n2)cc1	inconclusive: 29.1 µM [activator, partial curve, poor fit]	–
COc1ccc2c(c1)[C@H]1[C@H](CO2)[C@H](c2ccccc2)[C@]2(C)C(=O)Nc3cc(F)ccc3C(=O)N12	inconclusive: 29.1 µM [activator, single point]	–
CCOc1ccc(N(CC(=O)NC2CCCCC2)S(=O)(=O)c2ccccc2)cc1	–	inactive: 2.19%
O=C(NCc1cccnc1)C1CCN(S(=O)(=O)N2CCC3(CC2)OCCO3)CC1	inconclusive: 20.6 µM [activator, single point]	–
CCCCN(C(=O)CSc1nnc(-c2ccccc2OC)n1C)c1c(N)n(Cc2ccccc2)c(=O)[nH]c1=O	inconclusive: 9.2 µM [activator, partial curve, poor fit]	–
COc1cc(C(=S)N2CCCC2)ccc1OCc1ccccc1	–	inactive: 12.1%
CCC1(c2ccccc2)NC(=O)N(CC(=O)Nc2ccccc2C(=O)NC2CC2)C1=O (stereo not given)	inconclusive: 29.1 µM [activator, single point]	–
CN(Cc1ccccc1)C1CCN(Cc2ccccc2[N+](=O)[O-])CC1	–	inactive: 3.68%
COc1ccc(-c2coc3cc4oc(=O)cc(C)c4cc23)cc1F	inconclusive: 3.26 µM [activator, full curve, poor fit]	–
O=C(c1n[nH]c(=O)c2ccccc12)N1CCN(Cc2ccc3c(c2)OCO3)CC1	inconclusive: 29.1 µM [activator, single point]	–
Cc1ccccc1Cn1cc(NC(=O)c2noc3c2CC(C(C)(C)C)CC3)cn1 (stereo not given)	inconclusive: 29.1 µM [activator, single point]	–
CCC(=O)N(C)/C=C1\Sc2ccccc2C1=O	–	inactive: 3.25%
C=CC(=O)N1C/C(=C/c2ccccc2)C(=O)/C(=C\c2ccccc2)C1	inconclusive: 0.731 µM [activator, full curve, poor fit]	–
O=c1cc(O)c2sc(Nc3ccc(Cl)c(F)c3)nc2[nH]1	inconclusive: 16.4 µM [activator, single point]	–

Taken from above.
C=CC(=O)N1C/C(=C/c2ccccc2)C(=O)/C(=C\c2ccccc2)C1 – Potency: inconclusive: 0.731 µM [activator, full curve, poor fit]
O=c1cc(O)c2sc(Nc3ccc(Cl)c(F)c3)nc2[nH]1 – Potency: inconclusive: 16.4 µM [activator, single point]
O=C(OCC(=O)N1CCN(C(=O)c2ccco2)CC1)c1cc(-c2ccc(Cl)c(Cl)c2Cl)nc2ccccc12 – Potency: inconclusive: 29.1 µM [activator, single point]
O=C(NCc1cccnc1)C1CCN(S(=O)(=O)N2CCC3(CC2)OCCO3)CC1 – Potency: inconclusive: 20.6 µM [activator, single point]
COc1ccc(-c2coc3cc4oc(=O)cc(C)c4cc23)cc1F – Potency: inconclusive: 3.26 µM [activator, full curve, poor fit]

(more compounds)

Compound	Potency	re-replication activation
CCOc1ccccc1CN1CCNC(=O)C1CC(=O)N(C)C1CCOCC1 (stereo not given)	inconclusive: 1.03 µM [activator, partial curve, poor fit]	–
O=c1c2c3nc4ccccc4nc3n(/N=C/c3ccncc3)c2ncn1-c1ccccc1	–	inactive: -5.22%
C[C@@H]1CN(C(=O)c2nc3ccc(Cl)cn3c2CN[C@H]2CCCCNC2=O)C[C@H](C)O1	inconclusive: 6.51 µM [activator, single point]	–
Cc1c(C(=O)OCC(=O)NCCN2C(=O)CSC2=O)cccc1[N+](=O)[O-]	–	inactive: -24.6%
O=C(/C=C/c1ccc([N+](=O)[O-])cc1)OCC(=O)c1ccc[nH]1	–	inactive: 20.9%
O=C(COc1ccc(Cl)cc1)Nc1nnc(C2=COCCO2)o1	inconclusive: 29.1 µM [activator, single point]	–
CCC(=O)N1CCC2(CC1)Oc1ccc(F)cc1C(=O)C21CC(c2cccnc2)=NO1 (stereo not given)	inconclusive: 29.1 µM [activator, single point]	–
CC(C)CNC(=O)CO/N=C/c1ccccc1Cl	inconclusive: 6.51 µM [activator, single point]	–
O=C(NNc1nc2c(F)cccc2s1)c1ccc(F)cc1	–	inactive: -2.19%
CSCCC(NC(=O)c1cncc(Br)c1)C(=O)O (stereo not given)	–	inactive: 1.52%
Nc1ncnc(N)c1N=Nc1ccccc1	inconclusive: 29.1 µM [activator, single point]	–
Cc1ccccc1CN1CCC(CNC(=O)C2CCCN(c3ncnc4c3nc3n4CCCCC3)C2)CC1 (stereo not given)	–	inactive: 6.18%
CN(C)c1ncc(S(=O)(=O)c2ccccc2)c(-c2ccc(Cl)cc2Cl)n1	–	inactive: -6.53%
CCN(CC)CCNC(=O)CCc1nnc2ccc(N3CCC(C)CC3)nn12	–	inconclusive: -28.5% [activator]
O=C(NCc1ccc(F)cc1)c1ccc(CS(=O)(=O)Cc2ccc(F)cc2)o1	–	inactive: -6.03% [at 9.22 µM]
CCc1cc(C(=O)Cc2ccc(F)cc2)c(O)cc1O	–	inactive: -2.02%
COc1cccc(-c2nc(CS(=O)(=O)CC(=O)Nc3ccc(C(C)=O)cc3)c(C)o2)c1	inconclusive: 1.84 µM [activator, partial curve]	–
CC(C)C(=O)Nc1cccc(COc2ccc(CN(CCc3ccccc3)C(=O)OC(C)(C)C)cc2)c1	inconclusive: 4.11 µM [activator, full curve]	–
Cc1nnc(N=c2ssnc2Cl)o1	inconclusive: 0.92 µM [activator, full curve, poor fit]	–
CNC(=S)N(Cc1ccc(Cl)cc1)Cc1cccs1	inconclusive: 0.82 µM [activator, single point]	–
Cc1ccc(C)c(S(=O)(=O)NC2CCSC2=O)c1 (stereo not given)	–	inconclusive: -41.5% [activator]
